Measurements from the supplement of paper PMC10849652.
Some of the results follow.

Protein sequences, listed by entry. Tags and fused reporters are not part of them. Lines headed by an entry give the natural chain unless they say otherwise; changes in a name come on top.
UniProt Q9BT22: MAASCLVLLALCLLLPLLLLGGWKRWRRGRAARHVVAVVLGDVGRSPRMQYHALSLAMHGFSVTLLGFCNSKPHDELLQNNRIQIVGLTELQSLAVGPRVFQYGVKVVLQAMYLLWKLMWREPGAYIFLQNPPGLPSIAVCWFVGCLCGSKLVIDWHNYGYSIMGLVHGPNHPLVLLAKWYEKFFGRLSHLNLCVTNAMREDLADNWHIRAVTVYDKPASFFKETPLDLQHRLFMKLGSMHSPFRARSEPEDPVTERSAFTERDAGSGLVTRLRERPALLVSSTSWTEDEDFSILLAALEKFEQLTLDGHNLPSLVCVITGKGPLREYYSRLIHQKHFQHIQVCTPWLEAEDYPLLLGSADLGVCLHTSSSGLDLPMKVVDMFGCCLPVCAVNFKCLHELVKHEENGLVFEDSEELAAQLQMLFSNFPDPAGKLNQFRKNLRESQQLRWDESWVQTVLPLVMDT
UniProt Q53H12: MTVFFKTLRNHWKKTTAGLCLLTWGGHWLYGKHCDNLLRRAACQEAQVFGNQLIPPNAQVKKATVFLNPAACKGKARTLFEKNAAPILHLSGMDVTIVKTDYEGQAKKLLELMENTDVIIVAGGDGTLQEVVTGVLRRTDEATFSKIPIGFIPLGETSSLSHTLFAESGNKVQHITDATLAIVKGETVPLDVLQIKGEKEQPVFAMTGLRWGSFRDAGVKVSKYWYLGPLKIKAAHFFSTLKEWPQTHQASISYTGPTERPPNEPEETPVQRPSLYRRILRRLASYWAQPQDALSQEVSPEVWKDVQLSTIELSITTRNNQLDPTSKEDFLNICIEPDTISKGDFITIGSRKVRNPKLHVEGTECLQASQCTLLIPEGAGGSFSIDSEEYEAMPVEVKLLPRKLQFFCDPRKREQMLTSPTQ
UniProt P31751: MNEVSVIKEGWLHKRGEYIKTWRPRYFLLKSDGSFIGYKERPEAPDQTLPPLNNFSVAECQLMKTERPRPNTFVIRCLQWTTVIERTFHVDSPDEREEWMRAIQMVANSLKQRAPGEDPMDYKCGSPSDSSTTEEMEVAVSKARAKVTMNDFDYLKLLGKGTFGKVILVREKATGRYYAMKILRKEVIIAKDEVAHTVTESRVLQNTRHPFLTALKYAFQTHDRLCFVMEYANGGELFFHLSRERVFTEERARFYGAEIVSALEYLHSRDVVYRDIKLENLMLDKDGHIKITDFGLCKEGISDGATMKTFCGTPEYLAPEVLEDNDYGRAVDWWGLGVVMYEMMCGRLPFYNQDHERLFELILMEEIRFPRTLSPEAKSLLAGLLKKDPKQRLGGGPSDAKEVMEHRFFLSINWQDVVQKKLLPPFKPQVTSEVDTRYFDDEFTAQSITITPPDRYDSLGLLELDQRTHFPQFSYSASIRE
UniProt P13716: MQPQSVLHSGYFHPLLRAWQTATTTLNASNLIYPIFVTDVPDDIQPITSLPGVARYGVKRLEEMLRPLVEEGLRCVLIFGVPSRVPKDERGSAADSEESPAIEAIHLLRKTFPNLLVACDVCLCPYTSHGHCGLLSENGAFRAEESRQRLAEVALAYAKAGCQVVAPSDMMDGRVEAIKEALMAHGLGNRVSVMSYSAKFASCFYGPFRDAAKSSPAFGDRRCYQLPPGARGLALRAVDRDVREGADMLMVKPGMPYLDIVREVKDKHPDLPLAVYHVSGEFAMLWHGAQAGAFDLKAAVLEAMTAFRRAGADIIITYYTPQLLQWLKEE
UniProt P35612: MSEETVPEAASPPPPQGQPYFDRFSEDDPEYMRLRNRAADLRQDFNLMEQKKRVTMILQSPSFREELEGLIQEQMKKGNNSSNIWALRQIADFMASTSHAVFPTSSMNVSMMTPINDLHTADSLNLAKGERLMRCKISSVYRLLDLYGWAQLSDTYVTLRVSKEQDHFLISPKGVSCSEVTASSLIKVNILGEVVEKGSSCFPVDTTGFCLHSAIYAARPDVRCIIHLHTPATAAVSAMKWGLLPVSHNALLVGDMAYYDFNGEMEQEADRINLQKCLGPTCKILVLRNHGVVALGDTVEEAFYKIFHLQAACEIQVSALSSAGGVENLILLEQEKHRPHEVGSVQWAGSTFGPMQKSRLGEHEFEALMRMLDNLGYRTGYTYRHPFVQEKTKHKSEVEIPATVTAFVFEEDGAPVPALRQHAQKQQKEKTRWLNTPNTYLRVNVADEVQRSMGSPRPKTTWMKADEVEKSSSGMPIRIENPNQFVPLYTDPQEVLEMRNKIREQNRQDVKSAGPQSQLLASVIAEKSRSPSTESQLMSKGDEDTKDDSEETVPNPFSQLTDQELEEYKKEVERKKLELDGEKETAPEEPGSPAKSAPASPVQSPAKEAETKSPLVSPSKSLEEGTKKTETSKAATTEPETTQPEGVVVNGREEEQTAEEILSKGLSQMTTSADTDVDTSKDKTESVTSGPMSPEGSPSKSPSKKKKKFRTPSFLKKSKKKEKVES
UniProt Q9NYG5, whole entry, looked up: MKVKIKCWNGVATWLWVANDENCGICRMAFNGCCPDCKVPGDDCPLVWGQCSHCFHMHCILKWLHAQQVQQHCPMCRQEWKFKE
UniProt P55196: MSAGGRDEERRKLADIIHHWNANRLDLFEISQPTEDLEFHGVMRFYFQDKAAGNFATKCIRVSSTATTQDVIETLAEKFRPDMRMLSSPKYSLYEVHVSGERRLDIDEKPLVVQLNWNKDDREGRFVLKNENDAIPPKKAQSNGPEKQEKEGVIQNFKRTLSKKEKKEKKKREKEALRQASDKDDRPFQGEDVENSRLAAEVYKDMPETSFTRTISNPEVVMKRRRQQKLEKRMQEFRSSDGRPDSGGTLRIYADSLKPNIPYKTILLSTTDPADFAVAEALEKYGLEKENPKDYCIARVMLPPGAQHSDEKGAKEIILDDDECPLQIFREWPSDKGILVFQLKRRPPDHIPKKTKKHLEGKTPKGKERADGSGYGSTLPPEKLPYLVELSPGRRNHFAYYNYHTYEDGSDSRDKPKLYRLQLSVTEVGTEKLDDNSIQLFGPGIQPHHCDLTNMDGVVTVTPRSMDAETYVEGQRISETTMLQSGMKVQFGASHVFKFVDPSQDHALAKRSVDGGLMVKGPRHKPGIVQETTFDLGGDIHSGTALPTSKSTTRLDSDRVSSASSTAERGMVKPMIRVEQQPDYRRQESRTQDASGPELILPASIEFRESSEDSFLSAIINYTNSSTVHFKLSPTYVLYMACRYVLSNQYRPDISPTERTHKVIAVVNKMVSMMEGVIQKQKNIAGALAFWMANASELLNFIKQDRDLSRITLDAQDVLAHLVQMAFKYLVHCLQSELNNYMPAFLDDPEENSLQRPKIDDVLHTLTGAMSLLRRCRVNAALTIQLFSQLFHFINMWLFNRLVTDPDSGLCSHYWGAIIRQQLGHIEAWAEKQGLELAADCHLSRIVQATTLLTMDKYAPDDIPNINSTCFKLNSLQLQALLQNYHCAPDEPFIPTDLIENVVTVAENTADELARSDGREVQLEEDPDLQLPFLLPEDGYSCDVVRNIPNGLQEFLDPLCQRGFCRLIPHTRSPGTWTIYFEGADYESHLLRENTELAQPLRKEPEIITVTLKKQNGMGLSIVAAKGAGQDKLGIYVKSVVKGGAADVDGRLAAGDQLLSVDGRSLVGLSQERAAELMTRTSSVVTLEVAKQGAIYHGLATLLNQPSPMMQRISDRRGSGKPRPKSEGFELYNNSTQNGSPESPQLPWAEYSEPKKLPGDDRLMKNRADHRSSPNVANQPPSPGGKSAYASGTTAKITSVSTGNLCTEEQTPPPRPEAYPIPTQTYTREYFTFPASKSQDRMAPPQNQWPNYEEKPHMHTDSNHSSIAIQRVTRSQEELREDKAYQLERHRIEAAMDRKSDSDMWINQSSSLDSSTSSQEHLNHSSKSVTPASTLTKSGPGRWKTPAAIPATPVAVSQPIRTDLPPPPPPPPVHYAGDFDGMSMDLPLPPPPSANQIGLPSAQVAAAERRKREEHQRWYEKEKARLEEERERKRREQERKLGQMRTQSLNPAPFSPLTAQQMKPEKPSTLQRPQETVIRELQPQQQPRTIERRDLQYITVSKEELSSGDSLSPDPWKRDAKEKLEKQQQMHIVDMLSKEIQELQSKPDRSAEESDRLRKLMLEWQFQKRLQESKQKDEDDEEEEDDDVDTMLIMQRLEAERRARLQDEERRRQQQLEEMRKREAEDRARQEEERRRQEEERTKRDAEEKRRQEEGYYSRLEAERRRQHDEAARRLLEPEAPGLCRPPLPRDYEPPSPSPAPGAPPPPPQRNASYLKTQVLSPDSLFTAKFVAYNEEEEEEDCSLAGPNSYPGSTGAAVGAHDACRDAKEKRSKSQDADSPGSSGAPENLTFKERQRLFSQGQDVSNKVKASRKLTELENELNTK
UniProt Q96BJ3: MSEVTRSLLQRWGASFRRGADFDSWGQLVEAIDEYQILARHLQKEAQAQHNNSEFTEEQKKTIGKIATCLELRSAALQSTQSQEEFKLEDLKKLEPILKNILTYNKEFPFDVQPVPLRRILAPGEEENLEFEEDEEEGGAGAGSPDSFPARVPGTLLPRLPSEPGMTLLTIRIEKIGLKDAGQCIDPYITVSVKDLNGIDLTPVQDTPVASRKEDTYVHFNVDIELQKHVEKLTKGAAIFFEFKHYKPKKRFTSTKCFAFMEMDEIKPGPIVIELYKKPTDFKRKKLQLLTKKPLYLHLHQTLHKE
UniProt P42330: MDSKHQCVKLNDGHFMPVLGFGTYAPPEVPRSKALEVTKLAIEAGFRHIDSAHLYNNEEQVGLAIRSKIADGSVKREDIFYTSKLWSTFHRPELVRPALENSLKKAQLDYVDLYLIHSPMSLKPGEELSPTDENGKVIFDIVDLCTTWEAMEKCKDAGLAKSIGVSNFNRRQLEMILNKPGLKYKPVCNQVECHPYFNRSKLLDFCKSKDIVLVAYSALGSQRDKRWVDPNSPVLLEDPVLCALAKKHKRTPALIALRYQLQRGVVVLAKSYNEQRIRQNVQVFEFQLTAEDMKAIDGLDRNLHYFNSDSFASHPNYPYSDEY
UniProt O00170: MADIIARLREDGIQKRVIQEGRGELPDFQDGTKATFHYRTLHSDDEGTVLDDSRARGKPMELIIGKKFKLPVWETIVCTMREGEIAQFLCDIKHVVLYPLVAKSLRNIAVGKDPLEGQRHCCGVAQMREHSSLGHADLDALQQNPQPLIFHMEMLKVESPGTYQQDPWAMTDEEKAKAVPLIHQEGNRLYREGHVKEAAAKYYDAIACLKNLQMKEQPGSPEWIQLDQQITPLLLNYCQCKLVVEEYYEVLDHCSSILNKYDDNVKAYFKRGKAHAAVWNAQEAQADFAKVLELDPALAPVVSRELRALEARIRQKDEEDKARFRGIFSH
UniProt P30038: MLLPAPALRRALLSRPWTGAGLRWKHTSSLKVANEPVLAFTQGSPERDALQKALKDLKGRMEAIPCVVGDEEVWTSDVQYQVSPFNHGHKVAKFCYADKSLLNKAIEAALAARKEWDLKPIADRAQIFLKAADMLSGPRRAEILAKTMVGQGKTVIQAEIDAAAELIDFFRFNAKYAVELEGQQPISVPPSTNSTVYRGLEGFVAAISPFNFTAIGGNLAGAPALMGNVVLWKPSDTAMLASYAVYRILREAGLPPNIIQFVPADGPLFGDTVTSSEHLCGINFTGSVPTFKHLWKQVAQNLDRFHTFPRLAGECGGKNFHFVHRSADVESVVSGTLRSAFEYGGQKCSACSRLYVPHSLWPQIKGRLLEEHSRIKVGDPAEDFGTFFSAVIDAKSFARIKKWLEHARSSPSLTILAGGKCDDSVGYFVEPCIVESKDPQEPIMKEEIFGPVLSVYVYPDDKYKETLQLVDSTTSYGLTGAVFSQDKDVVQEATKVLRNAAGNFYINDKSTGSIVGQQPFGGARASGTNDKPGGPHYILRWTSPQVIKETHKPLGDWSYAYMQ
UniProt Q3MIX3: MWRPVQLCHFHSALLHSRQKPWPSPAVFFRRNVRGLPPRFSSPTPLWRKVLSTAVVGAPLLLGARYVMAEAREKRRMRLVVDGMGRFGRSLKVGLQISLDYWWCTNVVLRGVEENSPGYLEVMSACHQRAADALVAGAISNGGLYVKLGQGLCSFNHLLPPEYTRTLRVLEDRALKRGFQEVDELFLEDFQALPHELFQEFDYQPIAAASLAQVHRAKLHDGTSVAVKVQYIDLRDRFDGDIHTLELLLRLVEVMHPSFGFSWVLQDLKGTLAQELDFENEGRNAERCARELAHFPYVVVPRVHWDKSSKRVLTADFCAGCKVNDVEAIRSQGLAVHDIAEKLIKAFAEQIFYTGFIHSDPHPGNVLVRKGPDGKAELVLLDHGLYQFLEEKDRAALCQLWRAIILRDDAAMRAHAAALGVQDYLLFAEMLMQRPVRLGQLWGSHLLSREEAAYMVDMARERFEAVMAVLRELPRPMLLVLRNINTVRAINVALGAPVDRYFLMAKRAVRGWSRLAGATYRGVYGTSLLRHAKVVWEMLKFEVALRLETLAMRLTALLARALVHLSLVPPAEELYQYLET

Experiments:
Experiment in all cases: log2 fold change, soluble protein after heating vs DMSO (PISA); higher = thermal stabilisation; K562 cells, 10 uM, 30 min; active = over 0.2 and 3.5 SD of the protein, either way, in both replicates (recomputed)
[1] = compound: C1=CC=C(C=C1)[C@H](COC2=CC3=C(C=C2)NC(=O)N3)NC(=O)C4=CC=CN(C4=O)CC5=CC(=C(C=C5)F)F
Method in brief: (§1)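 K562 cells at 2×10^6 cells/mL were treated with 10 μM compound for 30 min. Aliquots were heated for 3 min across 48°C-58°C, pooled, and extracted in PBS with 0.5% NP-40 at 4°C; soluble protein was the supernatant after 21,000xg for 90 min. Soluble protein was quantified by TMTpro 16plex LC-MS/MS with channel sums equalised, and reported as log2 fold change in thermal stability against DMSO controls, with values from duplicates.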

[2] = compound: CC1=C(SC2=C1C(=N[C@H](C3=NN=C(N32)C)CC(=O)N)C4=CC=C(C=C4)Cl)C
Method in brief: as §1

[3] = compound: CC1=C2C(=CC=C1)N=C(N(C2=O)C3=CC=CC=C3C)CN4C=NC5=C(N=CN=C54)N
Method in brief: as §1

[4] = compound: Cc1sc2c(c1C)C(c1ccc(Cl)cc1)=N[C@@H](CC(=O)OC(C)(C)C)c1nnc(C)n1-2
Method in brief: as §1

[5] = compound: c1ccc([C@@H]2C[C@H]2NC2CCNCC2)cc1
Method in brief: as §1

Target | log2 fold change [1] | log2 fold change [2] | log2 fold change [3] | log2 fold change [4] | log2 fold change [5]
ALG1 (UniProt Q9BT22) | inactive: -0.021 | inactive: 0.092 | inactive: 0.06 | inactive: -0.083 | inactive: -0.044
AGK (UniProt Q53H12) | inactive: -0.019 | inactive: -0.004 | inactive: -0.002 | inactive: -0.041 | inactive: -0.002
AKT2 (UniProt P31751) | inactive: -0.124 | inactive: 0.055 | inactive: 0.061 | inactive: 0.009 | inactive: -0.028
AKAP8 (UniProt O43823) | inactive: 0.012 | inactive: -0.03 | inactive: 0.105 | inactive: -0.018 | active: 0.347
AGO1 (UniProt Q9UL18) | inactive: -0.05 | inactive: -0.066 | inactive: -0.114 | inactive: -0.016 | inactive: 0.05
AKR1B1 (UniProt P15121) | inactive: -0.016 | inactive: 0.087 | inactive: 0.006 | inactive: 0 | inactive: 0.005
ALAD isoform 2 (UniProt P13716) | inactive: 0.002 | inactive: -0.049 | inactive: -0.035 | inactive: -0.005 | inactive: 0.061
ANAPC10 (UniProt Q9UM13) | inactive: 0.031 | inactive: 0.014 | inactive: -0.016 | inactive: -0.026 | inactive: 0.016
ALDH1A1 (UniProt P00352) | inactive: 0.034 | inactive: 0.019 | inactive: 0.02 | inactive: -0.05 | inactive: -0.011
ADD2 (UniProt P35612) | inactive: 0.005 | inactive: 0.044 | inactive: 0.014 | inactive: -0.024 | inactive: 0.016
AKR1C2 (UniProt P52895) | inactive: 0 | inactive: -0.04 | inactive: 0.086 | inactive: 0.057 | inactive: -0.011
AIFM2 (UniProt Q9BRQ8) | inactive: 0.036 | inactive: 0.047 | inactive: 0.026 | inactive: 0.045 | inactive: 0
ANAPC11 (UniProt Q9NYG5) | inactive: 0.04 | inactive: 0.032 | inactive: -0.024 | – | inactive: 0.071
AFDN isoform 5 (UniProt P55196) | inactive: -0.04 | inactive: 0.055 | inactive: 0.069 | inactive: -0.018 | inactive: -0.023
AKR1A1 (UniProt P14550) | inactive: -0.023 | inactive: 0.05 | inactive: 0.039 | inactive: -0.007 | inactive: -0.04
AIDA (UniProt Q96BJ3) | inactive: -0.033 | inactive: 0.014 | inactive: 0.061 | inactive: 0.03 | inactive: -0.022
ALDH5A1 isoform 2 (UniProt P51649) | inactive: 0.025 | inactive: 0.009 | inactive: 0.003 | inactive: -0.019 | inactive: -0.009
AFP (UniProt P02771) | inactive: -0.001 | inactive: -0.017 | inactive: 0.053 | inactive: 0.119 | inactive: 0.143
AMPD2 (UniProt Q01433) | inactive: 0.002 | inactive: 0.016 | inactive: 0.037 | inactive: 0.006 | inactive: 0.011
AKT1S1 isoform 3 (UniProt Q96B36) | inactive: 0.028 | inactive: 0.033 | inactive: 0.072 | inactive: -0.068 | inactive: 0.016
ALDOC (UniProt J3QKP5) | inactive: 0.15 | inactive: 0.012 | inactive: 0.309 | inactive: 0.114 | inactive: -0.014
ALG6 (UniProt Q9Y672) | inactive: -0.034 | inactive: 0.047 | inactive: 0.014 | inactive: -0.072 | inactive: 0.043

Target | log2 fold change [1] | log2 fold change [2] | log2 fold change [3] | log2 fold change [4] | log2 fold change [5]
AKR1C3 (UniProt P42330) | inactive: 0.155 | inactive: 0.049 | inactive: 0.132 | inactive: -0.038 | inactive: -0.156
AMFR (UniProt Q9UKV5) | inactive: -0.043 | inactive: -0.004 | inactive: 0.023 | inactive: 0.024 | inactive: -0.046
ADIPOR2 (UniProt Q86V24) | inactive: 0.087 | inactive: 0.005 | inactive: 0.069 | inactive: 0.021 | inactive: 0.136
ALKBH1 (UniProt Q13686) | inactive: 0 | inactive: -0.024 | inactive: 0.113 | inactive: 0.032 | inactive: -0.024
AIP (UniProt O00170) | inactive: -0.031 | inactive: 0.078 | inactive: 0.042 | inactive: -0.004 | inactive: -0.018
AFTPH isoform 9 (UniProt Q6ULP2) | inactive: -0.041 | inactive: 0 | inactive: 0.046 | inactive: -0.066 | inactive: -0.022
ALG11 (UniProt Q2TAA5) | inactive: 0.001 | inactive: 0.085 | inactive: 0.144 | inactive: -0.051 | inactive: -0.021
ALKBH4 (UniProt Q9NXW9) | inactive: 0.023 | inactive: -0.063 | inactive: -0.078 | inactive: 0.079 | inactive: -0.033
ALDOA isoform 2 (UniProt P04075) | inactive: 0.003 | inactive: -0.007 | inactive: -0.033 | inactive: -0.004 | inactive: 0.003
AMBRA1 isoform 5 (UniProt Q9C0C7) | inactive: -0.133 | inactive: -0.051 | inactive: -0.302 | inactive: 0.183 | inactive: 0.085
AIMP1 isoform 2 (UniProt Q12904) | inactive: 0.029 | inactive: -0.118 | inactive: -0.114 | inactive: 0.293 | inactive: -0.008
AIMP2 (UniProt Q13155) | inactive: 0.037 | inactive: -0.154 | inactive: -0.124 | inactive: 0.287 | inactive: -0.005
ADPGK (UniProt Q9BRR6) | inactive: -0.036 | inactive: 0.039 | inactive: 0.079 | inactive: -0.008 | inactive: 0.003
ALG2 (UniProt Q9H553) | inactive: 0.038 | inactive: 0.055 | inactive: 0.06 | inactive: 0.004 | inactive: -0.033
ALDH4A1 (UniProt P30038) | inactive: 0.006 | inactive: 0.047 | inactive: 0.011 | inactive: -0.012 | inactive: -0.066
AK2 isoform 2 (UniProt P54819) | inactive: 0.006 | inactive: 0.002 | inactive: 0.012 | inactive: 0.003 | inactive: 0.026
AGL (UniProt P35573) | inactive: -0.024 | inactive: -0.051 | inactive: -0.049 | inactive: 0.067 | inactive: 0.016
ALG5 (UniProt Q9Y673) | inactive: -0.037 | inactive: 0.1 | inactive: 0.082 | inactive: -0.06 | inactive: -0.056
ADCK5 (UniProt Q3MIX3) | – | – | inactive: -0.106 | inactive: 0.073 | –
ALOX5 (UniProt P09917) | – | – | – | inactive: 0.03 | –
ADIPOR1 (UniProt Q96A54) | inactive: 0.098 | – | inactive: 0.04 | – | –
ALOX12B (UniProt O75342) | inactive: -0.065 | – | inactive: -0.645 | inactive: -0.204 | –

Individual results from the list:
log2 fold change [3] with ANAPC11 (UniProt Q9NYG5) reads inactive: -0.024
log2 fold change [2] with ALG1 (UniProt Q9BT22) reads inactive: 0.092
log2 fold change [4] with ALAD isoform 2 (UniProt P13716) reads inactive: -0.005

Two records drawn at random from those above:
Target | log2 fold change [1] | log2 fold change [2] | log2 fold change [3] | log2 fold change [4] | log2 fold change [5]
ALG1 (UniProt Q9BT22) | inactive: -0.021 | inactive: 0.092 | inactive: 0.06 | inactive: -0.083 | inactive: -0.044
ALAD isoform 2 (UniProt P13716) | inactive: 0.002 | inactive: -0.049 | inactive: -0.035 | inactive: -0.005 | inactive: 0.061
